The test deals with T1, murine CSF-1R on M-NFS-60 cells (mouse) (UniProt P09581).
T1 sequence (looked up): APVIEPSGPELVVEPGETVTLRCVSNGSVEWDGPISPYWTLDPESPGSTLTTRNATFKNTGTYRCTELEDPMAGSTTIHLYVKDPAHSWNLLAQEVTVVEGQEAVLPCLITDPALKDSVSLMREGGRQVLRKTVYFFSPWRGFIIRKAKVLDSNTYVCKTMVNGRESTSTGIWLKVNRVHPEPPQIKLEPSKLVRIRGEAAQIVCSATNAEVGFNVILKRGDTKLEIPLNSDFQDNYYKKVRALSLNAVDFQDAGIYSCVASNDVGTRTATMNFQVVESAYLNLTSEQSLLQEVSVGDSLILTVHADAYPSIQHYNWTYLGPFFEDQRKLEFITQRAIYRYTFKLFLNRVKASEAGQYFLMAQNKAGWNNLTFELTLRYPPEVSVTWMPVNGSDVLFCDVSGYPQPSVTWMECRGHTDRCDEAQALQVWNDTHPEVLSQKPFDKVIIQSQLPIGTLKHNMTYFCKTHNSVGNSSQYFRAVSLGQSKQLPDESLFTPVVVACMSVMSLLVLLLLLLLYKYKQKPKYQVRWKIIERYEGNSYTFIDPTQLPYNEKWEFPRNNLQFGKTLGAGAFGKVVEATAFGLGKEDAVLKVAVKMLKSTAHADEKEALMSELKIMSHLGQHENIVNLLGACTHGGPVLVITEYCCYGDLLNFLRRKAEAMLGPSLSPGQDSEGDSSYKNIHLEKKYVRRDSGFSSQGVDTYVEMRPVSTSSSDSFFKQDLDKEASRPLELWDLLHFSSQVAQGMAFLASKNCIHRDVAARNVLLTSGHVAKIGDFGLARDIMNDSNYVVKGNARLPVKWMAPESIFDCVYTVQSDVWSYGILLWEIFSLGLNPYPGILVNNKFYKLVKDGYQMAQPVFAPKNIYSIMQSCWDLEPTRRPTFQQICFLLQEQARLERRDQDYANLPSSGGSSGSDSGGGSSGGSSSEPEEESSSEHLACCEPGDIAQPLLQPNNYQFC
The test can be described thus: flow cytometry on M-NFS-60 cells. (A flow cytometer gives signals particle by particle.)

Results are given in words; binding and its absence hold for the method and conditions named. Some results given as binding are weak or reduced against the parent protein; the word gives no strength.

B1: recombinant murine CSF-1 (ligand, mouse, UniProt P07141 33-188, looked up)
chain: KEVSEHCSHMIGNGHLKVLQQLIDSQMETSCQIAFEFVDQEQLDDPVCYLKKAFFLVQDIIDETMRFKDNTPNANATERLQELSNNLNSCFTKDYEEQNKACVRTFHETPLQLLEKIKNFFNETKNLLEKDWNIFTKNCNNSFAKCSSRDVVTKPD
For the molecule B1, the binding result was “binds”.

These data come from patent publication US20160200820A1.
